Results published in US6716392B1, “Preservation of liquid biological samples” (The United States of America as represented by the United …, priority 1995, dated 2004).
Some results were stated once for a whole list of compounds, not compound by compound.

Assay: APAP and AP in saliva stored in preservative coated tubes during Mir-space flight mission
Type: physicochemical
Details: preservative coated Salivettes stored in the locker of the Shuttle

Cc1cc(=O)n(-c2ccccc2)n1C [AP, antipyrine]
time concentrations were stable in saliva: ≥ 90 days
